Data from PubChem BioAssay AID504467 (National Center for Advancing Translational Sciences (NCATS), 2011).
The campaign covered roughly 330,000 compounds. About 7,700 (2.3%) were called active. The shares of active, inactive and inconclusive entries below differ from those in the screen. Calls come from the whole dose curve; as a rule, active = well fitted inhibition curve with a large enough effect; inconclusive = small, poorly fitted or top-dose-only effect, or effect the other way; inactive = flat fitted curve, though single readings scatter. Potencies of inconclusive entries are doubtful fits and often do not repeat.

Experiment: qHTS screen for small molecules that inhibit ELG1-dependent DNA repair in human embryonic kidney (HEK293T) cells expressing luciferase-tagged ELG1; note: nearly all actives have a fitted effect of over 55% in size
Details: HEK293T ELG1-luciferase reporter, luminescence, 16 h, DNA damage induced by 5-fluorouridine; activity change, negative = inhibition: at 46.1 µM (top of the series)
In short: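 5-Fluorouridine DNA damage + compound/DMSO, 2,000 cells/well, 16 h, 37 °C/5% CO2. ONE-Glo, 30 min RT, luminescence. Readout = decrease in reporter signal.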
% is set by controls: 0 for no effect and ±100 for the full control effect; potency is the fitted concentration of half-maximal effect.

| SMILES | Potency | activity change, negative = inhibition |
| --- | --- | --- |
| Cc1ccccc1N=C1NC(=O)/C(=C/c2cccnc2)S1 | active: 20.6 µM | – |
| Cc1cccc(/C=C2\Sc3ccc(C(=O)N4CCOCC4)cc3N(C)C2=O)c1 | – | inactive: -15.5% |
| COc1ccccc1CN(Cc1nc2ccccc2c(=O)[nH]1)C(=O)Nc1cccc(C)c1 | inconclusive: 29.1 µM [inhibitor, single point] | – |
| Cc1cccc(NC(=O)c2ccc(NCC3CCCO3)c([N+](=O)[O-])c2)n1 (centres undefined) | inconclusive: 6.51 µM [activator, single point] | – |
| O=C(CCc1ccccc1)Nc1ccc2c(c1)OCO2 | inconclusive: 13 µM [activator, partial curve] | – |
| COc1ccc(CCCc2nnc(SCC(=O)Nc3nc(C)cs3)n2C)cc1 | inconclusive: 9.2 µM [inhibitor, partial curve, poor fit] | – |
| CCN(CC)c1ccc(/C=N/NC(=O)CN2CCCc3ccccc32)cc1 | inconclusive: 4.11 µM [inhibitor, partial curve, poor fit] | – |
| CCCC(=O)NC(=S)N1CCN(c2ccc([N+](=O)[O-])cc2)CC1 | inconclusive: 29.1 µM [inhibitor, single point] | – |
| COc1ccc2c(=O)c3c(=O)n(CCc4ccccc4)c(C(C)C)nc3oc2c1 | – | inactive: -27.4% |
| O=C1OC2(CCCCC2)OC(=O)C1=CNc1ccc2c(c1)OCO2 | inconclusive: 18.4 µM [activator, single point] | – |
| COCCN1C(=O)c2cc(C(=O)Nc3ccc(C)c(F)c3)ccc2C1Nc1ccc(C)c(F)c1 (centres undefined) | inconclusive: 20.6 µM [activator, single point] | – |
| Cn1cnnc1SCC(=O)Nc1ccc2nc(SCc3ccccc3F)sc2c1 | inconclusive: 2.31 µM [activator, partial curve] | – |
| Cc1cccc(-c2nc(C#N)c(NCC3CCCO3)o2)c1 (centres undefined) | inconclusive: 3.26 µM [activator, partial curve] | – |
| CN(C)CCN(C(=O)c1ccc2c(c1)CCCC2)c1nc2c(F)cccc2s1 | inconclusive: 29.1 µM [activator, single point] | – |
| C=CCN(c1ccccc1)S(=O)(=O)c1cccc(C(=O)N2CCCC2)c1 | inconclusive: 32.6 µM [activator, partial curve, poor fit] | – |
| COC(=O)c1ccc(C(=O)OC)c(NC(=O)CCC(=O)O)c1 | inconclusive: 23.1 µM [activator, partial curve, poor fit] | – |
| CCC(C)NC(=O)COC(=O)c1ccccc1OCC(=O)Nc1ccc(Br)cc1 (centres undefined) | inconclusive: 20.6 µM [activator, single point] | – |
| Cc1ccccc1C(=O)Oc1ccccc1C(=O)N1CCOCC1 | inconclusive: 10.3 µM [inhibitor, partial curve] | – |
| COC(=O)C(NC(C)=O)(Nc1nc2c(C)cc(C)cc2s1)C(F)(F)F (centres undefined) | inconclusive: 20.6 µM [inhibitor, single point] | – |
| COc1cccc(NC(=O)C(C)(C)C)c1 | – | inactive: -2.52% |
| COc1ccc(NC(=O)COc2cccc3c2CCN(Cc2cccnc2)C3=O)c(OC)c1 | inconclusive: 18.3 µM [inhibitor, partial curve] | – |
| CCN(CC)S(=O)(=O)c1ccc(NC(=O)c2nc3nc(C)cc(C)n3n2)cc1 | inconclusive: 23.1 µM [inhibitor, single point] | – |
| Cc1c(C(=O)Nc2ccccc2)csc1-c1ccccc1 | inconclusive: 1.84 µM [activator, full curve] | – |

| SMILES | Potency | activity change, negative = inhibition |
| --- | --- | --- |
| COc1ccc(NC(=O)CSc2cc(C(=O)c3nccn3C)c3ccccc3n2)cc1 | inconclusive: 9.2 µM [inhibitor, partial curve] | – |
| COc1cnc(-c2ccccn2)nc1Sc1c(Cl)cccc1Cl | inconclusive: 1.78 µM [inhibitor, full curve, poor fit] | – |
| CCN1C(=O)S/C(=C/c2c(OCc3ccc(C(=O)O)cc3)ccc3ccccc23)C1=O | inconclusive: 29.1 µM [inhibitor, single point] | – |
| CCOC(=O)c1nn(-c2ccc(F)cc2)cc1O | inconclusive: 29.1 µM [activator, single point] | – |
| CCCCn1c(NC(C)=O)c(C#N)c2nc3ccccc3nc21 | inconclusive: 29.1 µM [inhibitor, single point] | – |
| Fc1ccccc1CNc1cc(Cl)cc(Cl)c1 | inconclusive: 0.92 µM [activator, full curve, poor fit] | – |
| Brc1ccc(C2NCCS2)cc1 (centres undefined) | – | inactive: 0.313% |
| CCC(C(=O)OCC(=O)Nc1cc(Cl)ccc1Cl)c1ccccc1 (centres undefined) | inconclusive: 32.6 µM [inhibitor, partial curve, poor fit] | – |
| CCOC(=O)N1CCC(=NNc2nc3ccccc3s2)CC1 | inconclusive: 1.83 µM [activator, full curve, poor fit] | – |
| CC(Sc1nc(N(C)C)nc(N2CCOCC2)n1)C(=O)Nc1ccccc1 (centres undefined) | – | inactive: -16% |
| O=C(Nc1ccc(NC(=O)c2cccs2)cc1)c1ccc2c(c1)OCCO2 | – | inactive: 16.1% |
| O=C(CNC(=O)C1CCCCC1)Nc1ccccc1 | inconclusive: 25.9 µM [activator, partial curve] | – |
| N#Cc1nc(-c2ccco2)oc1N1CCN(c2cccc(Cl)c2)CC1 | – | inactive: -11.8% |
| COc1ccc(NC(=O)NCCCCc2ccccc2)cc1OC | inconclusive: 2.91 µM [inhibitor, partial curve, poor fit] | – |
| CC1CCN(CCCNC(=O)c2ccc(N3CCCC3=O)cc2)CC1 | inconclusive: 20.6 µM [activator, partial curve, poor fit] | – |
| O=C(c1ccc(COc2c(F)c(F)c(F)c(F)c2F)o1)N1CCOCC1 | inconclusive: 6.31 µM [activator, partial curve, poor fit] | – |
| Cc1ccc(SCC(=O)OCC(=O)N(C)CC(=O)Nc2ccc(F)cc2)cc1C | – | inactive: 12.2% |
| Cc1occc1-c1nnc(SCC(=O)Nc2ccccc2)n1Cc1ccccc1 | inconclusive: 23.1 µM [inhibitor, single point] | – |
| O=C(NC1CCN(Cc2ccc3ccccc3c2)CC1)c1ccccc1 | – | inactive: -16.2% |
| CC1CCN(C(=O)C2COc3ccccc3O2)CC1 (centres undefined) | inconclusive: 16.4 µM [activator, partial curve, poor fit] | – |
| Cc1nnc2n(C3CCCCC3)c(=O)c3c4c(sc3n12)COC(C)(C)C4 | inconclusive: 29.1 µM [inhibitor, single point] | – |
| CCN1CCN(CCNC(=O)c2ccc(/C=C3/Sc4ccccc4N(Cc4cccc(Cl)c4)C3=O)cc2)CC1 | inconclusive: 18.3 µM [activator, single point] | – |
| O=C(Nc1cccc(Cl)c1)c1ccc(Cn2cc(Cl)cn2)cc1 | inconclusive: 18.4 µM [activator, single point] | – |

An excerpt of these results, as labelled records.
COc1cccc(NC(=O)C(C)(C)C)c1
  activity change, negative = inhibition: inactive: -2.52%
COc1ccc(NC(=O)COc2cccc3c2CCN(Cc2cccnc2)C3=O)c(OC)c1
  Potency: inconclusive: 18.3 µM [inhibitor, partial curve]
CCN(CC)S(=O)(=O)c1ccc(NC(=O)c2nc3nc(C)cc(C)n3n2)cc1
  Potency: inconclusive: 23.1 µM [inhibitor, single point]
Cc1c(C(=O)Nc2ccccc2)csc1-c1ccccc1
  Potency: inconclusive: 1.84 µM [activator, full curve]

Continued.

| SMILES | Potency | activity change, negative = inhibition |
| --- | --- | --- |
| CCN(CC(=O)Nc1cc(Cl)ccc1C)C(=O)C1CC1 | – | inactive: 8.81% |
| COc1ccc(CN(C(=O)Cc2c[nH]c3ccccc23)C(C(=O)NC2CCCCC2)c2ccc(C)o2)cc1 (centres undefined) | active: 20.6 µM | – |
| CCC(=O)Nc1sc(C(=O)Nc2ccccc2)c(C)c1C(=O)OC | inconclusive: 2.31 µM [activator, partial curve] | – |
| COc1ccc(Nc2ccc([N+](=O)[O-])c3nonc23)c(OC)c1 | – | inconclusive: 35.5% [activator] |
| Cc1ccsc1/C=N/NC(=O)c1nnn(-c2nonc2N)c1CSc1ccccc1 | inconclusive: 32.6 µM [activator, partial curve, poor fit] | – |
| COc1ccc(C(=O)NCCS(=O)(=O)N2CCCC2)cc1 | – | inactive: 9.22% |
| O=C(Nc1cc2c3c(c1)CC(=O)N3CCC2)c1c(F)cccc1F | inconclusive: 25.9 µM [activator, single point] | – |
| CC1CCN(CCOCCOc2ccc(Br)cc2Cl)CC1 | inconclusive: 6.51 µM [inhibitor, single point] | – |
| CC1=C[C@H]2Cc3cc(C)cc(C)c3S(=O)(=O)[C@@H]2C=C1 | active: 16.4 µM | – |
| COc1ccccc1C(=O)N/C(=C\c1cn(S(=O)(=O)N(C)C)c2ccccc12)C(=O)N1CCCCC1 | – | inactive: -21.9% |
| COc1ccc(C2(O)CC3CCC(C2)N3c2cc(C)nc(-c3ccccc3)n2)cc1 (centres undefined) | active: 18.4 µM | – |
| COc1ccccc1Nc1nc(N)nc(CSC(=S)N2CCN(c3ccccc3)CC2)n1 | inconclusive: 29.1 µM [inhibitor, single point] | – |
| N#Cc1nc(Cc2cccc3ccccc23)oc1NCc1ccco1 | inconclusive: 23.1 µM [inhibitor, single point] | – |
| CCN(CC)C(=O)C(=O)N/N=C/c1ccc(C(=O)OC)cc1 | – | inactive: 14.2% |
| CC(C)(C)SCCNS(=O)(=O)c1ccc(C#N)cc1 | – | inactive: -13.1% |
| O=C(CSc1n[nH]c(-c2ccccn2)n1)Nc1cccc(Cl)c1 | active: 25.9 µM | – |
| O=C(NCC1CCCO1)c1csc(Nc2cccc3ccccc23)n1 (centres undefined) | inconclusive: 4.61 µM [inhibitor, single point] | – |
| CN(c1cccc(NC(=O)CN(c2ccc(F)cc2)S(C)(=O)=O)c1)S(C)(=O)=O | – | inactive: 2.1% |
| Cc1nc2sc(C(=O)Nc3ccccc3)c(N)c2c(C)c1[N+](=O)[O-] | inconclusive: 2.06 µM [activator, full curve] | – |
| CN(C(=O)/C=C/c1ccccc1)C1CCS(=O)(=O)C1 (centres undefined) | – | inactive: 11.3% |
| c1ccc2nc(-c3ccc(N4CCOCC4)cc3)ccc2c1 | inconclusive: 0.411 µM [activator, full curve, poor fit] | – |
| O=C(OCC(=O)N1CCN(C(=O)c2ccco2)CC1)c1cc(-c2ccco2)nc2ccccc12 | inconclusive: 23.1 µM [inhibitor, partial curve, poor fit] | – |
| Cn1c(-n2c(-c3ccco3)nc3ccccc3c2=O)nc2ccccc21 | inconclusive: 25.9 µM [activator, partial curve, poor fit] | – |
